Holding throughout (assay): affinity purification with mass spectrometry; StrepHA-tagged bait from doxycycline-induced, HBSS-starved HeLa cells; lysis in modified RIPA (150 mM NaCl, 50 mM Tris-HCl pH 8, 1% NP-40, 0.1% sodium deoxycholate); Strep-Tactin XT-4Flow beads overnight at 4°C; elution with 100 mM biotin; quantitative MS, n = 3, preparations compared with each other (PPP2CA or PPP2R5E against PPP1CA)

Chains of the proteins cited; added tags and fusions are not shown.
UniProt P62136: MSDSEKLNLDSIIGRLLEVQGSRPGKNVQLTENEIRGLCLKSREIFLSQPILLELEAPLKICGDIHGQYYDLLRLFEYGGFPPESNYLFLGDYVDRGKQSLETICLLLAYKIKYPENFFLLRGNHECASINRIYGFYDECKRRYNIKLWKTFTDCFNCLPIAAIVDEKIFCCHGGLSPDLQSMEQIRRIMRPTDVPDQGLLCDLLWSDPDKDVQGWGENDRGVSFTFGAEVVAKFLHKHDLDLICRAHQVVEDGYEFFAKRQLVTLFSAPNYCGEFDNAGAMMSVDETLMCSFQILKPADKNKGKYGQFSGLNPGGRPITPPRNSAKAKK
UniProt Q16537: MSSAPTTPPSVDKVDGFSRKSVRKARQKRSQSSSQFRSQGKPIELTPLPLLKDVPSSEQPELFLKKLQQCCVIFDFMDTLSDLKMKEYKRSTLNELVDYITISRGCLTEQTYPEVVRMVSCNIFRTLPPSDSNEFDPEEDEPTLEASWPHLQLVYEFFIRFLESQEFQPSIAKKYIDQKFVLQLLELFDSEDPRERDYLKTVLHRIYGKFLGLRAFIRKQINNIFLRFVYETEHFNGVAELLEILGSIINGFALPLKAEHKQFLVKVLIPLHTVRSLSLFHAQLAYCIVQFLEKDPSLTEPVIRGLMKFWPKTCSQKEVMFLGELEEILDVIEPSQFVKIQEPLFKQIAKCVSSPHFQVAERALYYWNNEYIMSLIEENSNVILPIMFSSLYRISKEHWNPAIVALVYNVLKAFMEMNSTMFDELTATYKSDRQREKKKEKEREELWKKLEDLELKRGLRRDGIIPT
UniProt P67775: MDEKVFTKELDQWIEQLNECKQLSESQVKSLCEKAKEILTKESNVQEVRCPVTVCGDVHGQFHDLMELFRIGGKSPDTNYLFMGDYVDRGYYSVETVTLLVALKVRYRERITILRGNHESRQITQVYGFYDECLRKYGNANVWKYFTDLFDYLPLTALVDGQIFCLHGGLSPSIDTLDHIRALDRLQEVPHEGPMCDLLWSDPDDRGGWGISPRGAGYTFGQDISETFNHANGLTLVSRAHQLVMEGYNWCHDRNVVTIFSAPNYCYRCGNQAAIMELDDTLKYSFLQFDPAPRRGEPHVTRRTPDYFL
UniProt P30154: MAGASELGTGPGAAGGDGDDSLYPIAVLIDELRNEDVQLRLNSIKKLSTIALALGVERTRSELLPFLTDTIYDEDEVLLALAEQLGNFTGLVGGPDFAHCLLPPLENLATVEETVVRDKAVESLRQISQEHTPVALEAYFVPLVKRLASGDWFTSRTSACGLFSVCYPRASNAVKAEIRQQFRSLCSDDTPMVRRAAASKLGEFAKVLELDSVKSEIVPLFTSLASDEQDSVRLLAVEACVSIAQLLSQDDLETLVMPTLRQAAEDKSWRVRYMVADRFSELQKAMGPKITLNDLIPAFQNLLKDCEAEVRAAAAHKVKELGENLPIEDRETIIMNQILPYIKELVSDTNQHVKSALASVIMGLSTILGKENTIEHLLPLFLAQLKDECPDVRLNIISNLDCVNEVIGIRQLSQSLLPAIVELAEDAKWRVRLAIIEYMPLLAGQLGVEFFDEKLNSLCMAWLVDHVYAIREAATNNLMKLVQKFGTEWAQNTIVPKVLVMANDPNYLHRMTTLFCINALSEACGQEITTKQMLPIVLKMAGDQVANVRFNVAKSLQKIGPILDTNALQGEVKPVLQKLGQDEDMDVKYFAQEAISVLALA
UniProt P62714: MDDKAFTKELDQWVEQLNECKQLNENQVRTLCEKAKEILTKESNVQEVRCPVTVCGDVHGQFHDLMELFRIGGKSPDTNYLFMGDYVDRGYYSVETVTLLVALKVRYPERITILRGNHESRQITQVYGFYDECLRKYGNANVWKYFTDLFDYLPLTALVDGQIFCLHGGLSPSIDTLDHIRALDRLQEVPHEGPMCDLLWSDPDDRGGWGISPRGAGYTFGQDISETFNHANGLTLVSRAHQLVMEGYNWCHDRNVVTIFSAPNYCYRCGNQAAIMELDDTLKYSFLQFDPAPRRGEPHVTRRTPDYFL
UniProt P30153: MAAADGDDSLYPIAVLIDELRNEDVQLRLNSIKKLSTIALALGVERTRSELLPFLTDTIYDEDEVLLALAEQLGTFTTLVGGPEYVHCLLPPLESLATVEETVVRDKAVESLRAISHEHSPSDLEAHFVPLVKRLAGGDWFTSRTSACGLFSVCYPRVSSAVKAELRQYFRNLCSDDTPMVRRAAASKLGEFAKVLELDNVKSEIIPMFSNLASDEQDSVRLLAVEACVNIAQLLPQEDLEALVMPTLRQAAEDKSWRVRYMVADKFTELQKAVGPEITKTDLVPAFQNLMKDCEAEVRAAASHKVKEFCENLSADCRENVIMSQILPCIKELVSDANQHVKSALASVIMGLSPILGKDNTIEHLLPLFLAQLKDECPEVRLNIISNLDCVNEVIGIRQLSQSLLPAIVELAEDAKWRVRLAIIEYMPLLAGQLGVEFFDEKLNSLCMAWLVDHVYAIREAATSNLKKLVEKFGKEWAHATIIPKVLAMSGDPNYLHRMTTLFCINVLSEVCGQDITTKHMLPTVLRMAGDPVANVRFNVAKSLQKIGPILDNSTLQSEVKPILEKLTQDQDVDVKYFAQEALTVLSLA

The target in test [1] is StrepHA-PPP1CA (human (cDNA from HEK293 RNA)) (UniProt P62136).
Test [2] addresses StrepHA-PPP2R5E (human (cDNA from HEK293 RNA)) (UniProt Q16537).
The target in test [3] is StrepHA-PPP2CA (UniProt P67775).
For test [4] the target is unchanged. The source holds these as a separate data set.

Where two headings read alike, the source gives them in different places. No constants are given. Whether binding was seen depends on the method and setting. In cells and extracts the contact can be indirect. A yes stands for co-enrichment or nearness to the bait. Other partners may have been found.

On to “PPP2CA (endogenous) (from UniProt P67775 1-309) (enzyme)”, for which the binding entry in test [1] and in test [2] was “binds” in each case.

In the case of PPP2R1B (from UniProt P30154 1-601), the binding entry (in test [2]; in the test with StrepHA-PPP2CA [3]) was “binds” throughout. With “PPP1CA (endogenous) (from UniProt P62136 1-330) (enzyme)”, in the test with StrepHA-PPP2CA [3], the binding result is on record as “binds”. On to “PPP2CB (from UniProt P62714 1-309) (enzyme)”, for which, in test [2], the binding result is “binds”. As for PPP2R1A (from UniProt P30153 1-589), the binding entry in test [2] is “binds”.

B1: PPP2R2D (protein, UniProt Q66LE6 1-453)
chain: MAGAGGGGCPAGGNDFQWCFSQVKGAIDEDVAEADIISTVEFNYSGDLLATGDKGGRVVIFQREQENKSRPHSRGEYNVYSTFQSHEPEFDYLKSLEIEEKINKIRWLPQQNAAHFLLSTNDKTIKLWKISERDKRAEGYNLKDEDGRLRDPFRITALRVPILKPMDLMVEASPRRIFANAHTYHINSISVNSDHETYLSADDLRINLWHLEITDRSFNIVDIKPANMEELTEVITAAEFHPHQCNVFVYSSSKGTIRLCDMRSSALCDRHSKFFEEPEDPSSRSFFSEIISSISDVKFSHSGRYMMTRDYLSVKVWDLNMESRPVETHQVHEYLRSKLCSLYENDCIFDKFECCWNGSDSAIMTGSYNNFFRMFDRDTRRDVTLEASRESSKPRASLKPRKVCTGGKRRKDEISVDSLDFNKKILHTAWHPVDNVIAVAATNNLYIFQDKIN
With B1, the binding entry with StrepHA-PPP2CA [4] is “binds”.

Source of the values: PMC12296510.
